## Library screening results

Protein sequences, listed by entry. Tags and fused reporters are not part of them.
UniProt E9BF75, entry or part of it: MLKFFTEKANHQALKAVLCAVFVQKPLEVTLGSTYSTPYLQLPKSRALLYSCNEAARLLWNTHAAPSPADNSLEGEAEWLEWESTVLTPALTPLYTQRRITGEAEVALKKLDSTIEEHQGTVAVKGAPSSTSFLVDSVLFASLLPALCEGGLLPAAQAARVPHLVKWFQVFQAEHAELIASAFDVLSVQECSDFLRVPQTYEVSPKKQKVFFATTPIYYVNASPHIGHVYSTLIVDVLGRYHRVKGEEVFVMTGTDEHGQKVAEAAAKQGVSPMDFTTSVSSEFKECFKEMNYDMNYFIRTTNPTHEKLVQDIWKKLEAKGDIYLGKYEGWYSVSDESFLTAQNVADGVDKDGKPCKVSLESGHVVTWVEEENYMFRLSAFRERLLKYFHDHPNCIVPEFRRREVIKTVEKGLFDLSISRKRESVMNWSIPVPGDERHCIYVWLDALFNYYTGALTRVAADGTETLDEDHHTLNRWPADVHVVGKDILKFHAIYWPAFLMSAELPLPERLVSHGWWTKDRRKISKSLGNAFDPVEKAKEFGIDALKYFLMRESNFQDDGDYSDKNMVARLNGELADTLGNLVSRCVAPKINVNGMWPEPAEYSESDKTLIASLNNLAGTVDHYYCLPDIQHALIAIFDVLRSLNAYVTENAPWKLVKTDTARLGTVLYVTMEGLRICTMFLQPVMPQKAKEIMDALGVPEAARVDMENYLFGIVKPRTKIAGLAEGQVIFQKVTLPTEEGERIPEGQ

Data taken from ChEMBL document CHEMBL3988442, “University of Dundee, Small-Polar-MMV Screening Library” (2021).

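Primary screen of methionyl-tRNA synthetase; the read-out is not stated. Target: Methionyl-tRNA synthetase (putative), Leishmania donovani (UniProt E9BF75). The test concentration is not given. Values are per cent inhibition. About 68,000 compounds were tested under these conditions; 0.035% (about 24) showed 50% or more at least once.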

Results are percentages, as filed.
How 0% and 100% were set is not recorded. Most values in the screen are low, and negative values occur.
Compounds were drawn at random from those tested, without regard to their results.

| # | structure | Inhibition |
|---|---|---|
| 1 | `O=C1CC(c2ccccc2)c2snc(C(=O)O)c2N1` (stereo not drawn) | 4.564% |
| 2 | `O=C(c1ccncc1F)N1Cc2nc(COCC3CC3)oc2C1` | 16.25% |
| 3 | `CCc1nnc(C2Cc3ccccc3CN2Cc2nc(C)no2)o1` (stereo not drawn) | 20.44% |
| 4 | `Cc1ccc(N2CCC(NC(C)c3ccc(C)o3)CC2)nc1` (stereo not drawn) | 5.412% |
| 5 | `Cc1cccc(C2(NCCCS(C)(=O)=O)CCCC2)c1` | 13.1% |
| 6 | `O=C(N[C@@H]1CN(CC2CC2)[C@@H]2CCCO[C@@H]21)c1cscn1` | 13.95% |
| 7 | `CC(C)Cc1ccc(S(=O)(=O)Nc2ccc(=O)n(C)c2)cc1` | 7.981% |
| 8 | `N#CC1(C(=O)N2C[C@H]3CC[C@@H]2CN(Cc2ccncc2)C3)CCOCC1` | 9.756% |
| 9 | `CCS(=O)(=O)N1CCn2cc(CN(C)Cc3ccco3)nc2C1` | 14.84% |
| 10 | `Cn1nnc2c1C(COCc1ccccn1)CN(C(=O)c1ccsc1)C2` (stereo not drawn) | 10.53% |
| 11 | `NC(=O)c1c[nH]nc1NC(=O)c1cccc(Cl)c1` | 12.7% |
| 12 | `Cc1nc(CN2CCCC2c2ccsc2)nc2ccccc12` (stereo not drawn) | 18.06% |
| 13 | `CCC1CC(=O)NCc2nc3sc(C)cn3c21` (stereo not drawn) | 11.54% |
| 14 | `CCS(=O)(=O)NCc1cccnc1N1CCCC(O)C1` (stereo not drawn) | 5.03% |
| 15 | `c1cnc(NCc2nnn3c2CN(Cc2cccs2)CCC3)nc1` | 16.77% |
| 16 | `Cc1cc2c(=O)n3c(nc2s1)CCN(C(=O)c1ccnn1C(C)C)CC3` | 2.589% |
| 17 | `C=C(C)CN(CC)Cc1nc(C2CC2)no1` | 6.62% |
| 18 | `O=C(CC1CCCC1)N1CCCC(c2n[nH]c3nccnc23)C1` (stereo not drawn) | 14.04% |
| 19 | `CC(Cn1cccn1)NC(=O)NCCCN1CCCCCC1=O` (stereo not drawn) | 11.59% |
| 20 | `CCCC1(CO)CCCN(C(=O)CNC(N)=O)C1` (stereo not drawn) | 14.24% |
| 21 | `Cc1cc(C)n(C2CCCN(C(=O)c3c(C)noc3C)C2)n1` (stereo not drawn) | 5.155% |
| 22 | `Cc1nc(C2CCCN(C(=O)c3cc4c(s3)CCCC4)C2)no1` (stereo not drawn) | 17.32% |
| 23 | `CS(=O)(=O)NC[C@]12COC[C@H]1CN(C(=O)Cc1ccccc1F)C2` | -103.9% |
| 24 | `CCOC(=O)C1CCN(C(=O)CN2CCCC2c2ccccc2C)CC1` (stereo not drawn) | 12.77% |
| 25 | `CCS(=O)(=O)N1CCN(C)c2ncccc2C1` | 8.743% |
| 26 | `COc1cccc2c1ccn2CCNC(C)=O` | 16.67% |
| 27 | `COC(=O)c1ccc2ccn(CC3CCCN(C)C3)c(=O)c2c1` (stereo not drawn) | 12.71% |
| 28 | `CC(C)OCCCNC(=O)C1CC(=O)N(c2n[nH]c3cccc(F)c23)C1` (stereo not drawn) | 16.06% |
| 29 | `CCN1CCn2c(C)cnc2C12CCN(C(=O)NC)CC2` | 8.654% |
| 30 | `CCC(CNC(=O)Cc1c(C)noc1C)N1CCCC1` (stereo not drawn) | 10.68% |
| 31 | `Fc1ccc(C2(NCc3noc(C4CC4)n3)CCC2)cc1` | -5.292% |
| 32 | `COc1cccc(/C=C/CCN2CCCN(C(C)=O)CC2)c1` | 8.333% |
| 33 | `CCCn1nc(C(=O)N2CCCC2c2noc(C)n2)ccc1=O` (stereo not drawn) | 1.882% |
| 34 | `CC(NCc1cccnc1)c1ccc(OCC(=O)NC2CC2)cc1` (stereo not drawn) | 6.944% |
| 35 | `COc1ccc(-c2cc3nc(CCNC(=O)C4CC4)nn3cn2)cc1` | 6.977% |
| 36 | `c1cncc(CN2CCc3ncnc(NCCc4c[nH]cn4)c3CC2)c1` | 6.875% |
| 37 | `COc1cc(NC(=O)NCCO)ccc1N1CCOC1=O` | 12.73% |
| 38 | `Cc1ccc(-c2nc(CN3C[C@@H](C)NC[C@@H]3C)c(C)o2)s1` | 13.43% |
| 39 | `CN(C)c1ncc(-c2cccc(F)c2)c(C2CNCCO2)n1` (stereo not drawn) | 12.26% |
| 40 | `C=C(C)COc1cccc(CNC(CC)c2ccnn2C)c1` (stereo not drawn) | 18.06% |
| 41 | `O=C(NCC1(O)CCOCC1)c1ccn(-c2ccccc2F)n1` | 14.78% |
| 42 | `CC(C)COCC(NC(=O)c1cnccn1)c1ccco1` (stereo not drawn) | 16.26% |
| 43 | `Cc1noc(C)c1C(=O)N1CCC(n2cccn2)CC1` | 10.89% |
| 44 | `COc1cccc2c1OCC(NCc1cnn(-c3ccccc3F)c1)C2` (stereo not drawn) | -0.5013% |
| 45 | `CC(C)CN1C(=O)C2(CCN(Cc3ccc(F)cc3)C2)c2ccccc21` (stereo not drawn) | 5.077% |
| 46 | `COCCOCC(=O)N1CCC(c2ccccc2F)C1` (stereo not drawn) | 6.948% |
| 47 | `COc1ncccc1C(=O)N1CC(c2nc(-c3cccs3)no2)C1` | 5.59% |
| 48 | `CC(C)C(=O)N1CCC([C@@H]2C[C@H](C(F)F)n3ncnc3N2)CC1` | 7.477% |
| 49 | `Cc1ccc(CN2CCN(CC3CC3)[C@@H]3CS(=O)(=O)C[C@@H]32)cc1C` | 15.61% |
| 50 | `Cn1nc(CC(C)(C)C)cc1NC(=O)c1ccc(CNC(N)=O)cc1` | 15.33% |
| 51 | `Cc1noc([C@@H]2CC[C@@H]3[C@@H](CCN3S(C)(=O)=O)O2)n1` | 19.31% |
| 52 | `Cc1ccc(Cc2sc(NC(=O)C(C)S(C)(=O)=O)nc2C)cc1` (stereo not drawn) | 10.57% |
| 53 | `Cc1csc(N2CCCN(c3cc(C)nc(C)c3C#N)CC2)n1` | 18.55% |
| 54 | `Cc1cccc(NC(=O)Cn2nc3ccccn3c2=O)c1C` | 16.87% |
| 55 | `NS(=O)(=O)NCc1cc(-c2ccc(C(F)(F)F)cc2)n[nH]1` | 15.78% |
| 56 | `CC1c2cccn2CCN1C(=O)CCCc1nc(-c2ccco2)no1` (stereo not drawn) | 9.353% |
| 57 | `Cc1cnn(CCNCc2ccc(OCC(N)=O)cc2)c1` | 15.61% |
| 58 | `Cc1cccc(NC(=O)c2ccc(OCc3nnnn3C)cc2)n1` | 8.709% |
| 59 | `COc1cc(C)nc(N2CCN(C(=O)c3ccn(C)c(=O)c3)CC2)n1` | 27.78% |
| 60 | `O=C(Cc1csc(-c2ccoc2)n1)NCCC(=O)N1CCCCC1` | 14.08% |
| 61 | `O=C(CCCOc1ccccc1F)NCCCC(=O)Nc1cn[nH]c1` | 15.38% |
| 62 | `COc1ccccc1OCC(=O)NS(=O)(=O)c1ccccc1Br` | 13.59% |
| 63 | `CCC(NC(=O)Nc1cc(F)c(OC)c(F)c1)c1noc(C)n1` (stereo not drawn) | 18.79% |
| 64 | `COc1cc(CNCC2CNc3ccnn3C2)ccn1` (stereo not drawn) | 13.68% |
| 65 | `CC(c1ncc(C(C)(C)C)o1)N1CCN(c2ccncc2)CC1` (stereo not drawn) | 5.442% |
| 66 | `O=S(=O)(CCc1ccccc1)Cc1nc(C2CC2)no1` | 5.923% |
| 67 | `O=C(NCC1CCOC1)c1csc(-c2ccc(Cl)cc2)n1` (stereo not drawn) | 15.1% |
| 68 | `Cc1cc(CN2CCN(C(=O)NC(C)Cn3cccn3)CC2)no1` (stereo not drawn) | 15.85% |
| 69 | `CC(=O)c1c(C)nn(S(=O)(=O)c2ccc(F)cc2)c1C` | 17.13% |
| 70 | `CCCn1ncc(C(=O)N(Cc2cccnc2)C[C@@H]2CCC(=O)N2)c1C` | 17.96% |
| 71 | `CCC(C)(C)NCc1nc(C(C)(C)NC(=O)OC(C)(C)C)no1` | 5.245% |
| 72 | `COc1cc(-c2cnnc(NCCSC)n2)cc(OC)c1OC` | 3.911% |
| 73 | `COCCC(=O)N1CCC(c2nnc(-c3ccsc3)o2)CC1` | 8.14% |
| 74 | `Cc1ncoc1C(=O)N1C[C@@H]2CN(CC3CC3)CCO[C@@H]2C1` | 11.52% |
| 75 | `Cc1nc(CC(=O)N2CCN(c3ccc(N(C)C)cc3)CC2)cs1` | 10.44% |
| 76 | `CC1CCC2(CC1)Nc1ccccc1CO2` (stereo not drawn) | 19.24% |
| 77 | `CC(NCc1cccc(S(=O)(=O)N(C)C)c1)c1ccccn1` (stereo not drawn) | 9.749% |
| 78 | `O=C(COCC1CC1)NCC(c1ccccc1)N1CCc2sccc2C1` (stereo not drawn) | 10% |

Some entries from above, unchanged:

structure	Inhibition
O=C(c1ccncc1F)N1Cc2nc(COCC3CC3)oc2C1	16.25%
Cc1cccc(C2(NCCCS(C)(=O)=O)CCCC2)c1	13.1%
COc1ccc(-c2cc3nc(CCNC(=O)C4CC4)nn3cn2)cc1	6.977%
O=C(COCC1CC1)NCC(c1ccccc1)N1CCc2sccc2C1 (stereo not drawn)	10%
C=C(C)CN(CC)Cc1nc(C2CC2)no1	6.62%
Cc1ccc(Cc2sc(NC(=O)C(C)S(C)(=O)=O)nc2C)cc1 (stereo not drawn)	10.57%
C=C(C)COc1cccc(CNC(CC)c2ccnn2C)c1 (stereo not drawn)	18.06%
Cc1nc(C2CCCN(C(=O)c3cc4c(s3)CCCC4)C2)no1 (stereo not drawn)	17.32%
CC(NCc1cccnc1)c1ccc(OCC(=O)NC2CC2)cc1 (stereo not drawn)	6.944%